# Screening data, single-dose tests

Sequences of proteins named here, by UniProt entry; tags and fusion partners are left off. Residues count along the entry.
UniProt P9WPC5, whole entry: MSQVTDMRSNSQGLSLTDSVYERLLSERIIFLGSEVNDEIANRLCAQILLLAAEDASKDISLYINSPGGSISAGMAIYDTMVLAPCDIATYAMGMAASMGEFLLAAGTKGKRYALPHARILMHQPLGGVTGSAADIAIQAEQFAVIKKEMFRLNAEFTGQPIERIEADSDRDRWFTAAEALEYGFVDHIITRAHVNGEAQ
UniProt P9WPC3, whole entry partner: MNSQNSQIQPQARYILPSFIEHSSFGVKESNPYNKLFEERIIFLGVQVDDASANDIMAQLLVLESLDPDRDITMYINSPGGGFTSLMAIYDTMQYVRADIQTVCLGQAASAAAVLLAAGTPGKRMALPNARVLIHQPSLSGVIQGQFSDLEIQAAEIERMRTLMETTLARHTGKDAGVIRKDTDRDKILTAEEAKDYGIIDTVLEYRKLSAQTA
UniProt Q4DA54, 1-478: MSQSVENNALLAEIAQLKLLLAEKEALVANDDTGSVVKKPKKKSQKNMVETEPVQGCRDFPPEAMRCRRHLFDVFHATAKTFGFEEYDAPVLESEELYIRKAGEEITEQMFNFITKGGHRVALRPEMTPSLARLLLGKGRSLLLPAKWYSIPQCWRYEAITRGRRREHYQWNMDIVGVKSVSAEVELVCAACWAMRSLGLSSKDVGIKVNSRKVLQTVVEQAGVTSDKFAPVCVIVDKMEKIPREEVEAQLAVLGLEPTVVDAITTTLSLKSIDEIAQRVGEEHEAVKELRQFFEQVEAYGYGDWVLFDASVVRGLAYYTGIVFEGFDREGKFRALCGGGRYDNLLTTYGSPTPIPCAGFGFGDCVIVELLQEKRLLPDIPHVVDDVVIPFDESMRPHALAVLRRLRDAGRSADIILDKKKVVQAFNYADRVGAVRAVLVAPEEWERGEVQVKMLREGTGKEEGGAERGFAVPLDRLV
UniProt I6X8D2, whole entry: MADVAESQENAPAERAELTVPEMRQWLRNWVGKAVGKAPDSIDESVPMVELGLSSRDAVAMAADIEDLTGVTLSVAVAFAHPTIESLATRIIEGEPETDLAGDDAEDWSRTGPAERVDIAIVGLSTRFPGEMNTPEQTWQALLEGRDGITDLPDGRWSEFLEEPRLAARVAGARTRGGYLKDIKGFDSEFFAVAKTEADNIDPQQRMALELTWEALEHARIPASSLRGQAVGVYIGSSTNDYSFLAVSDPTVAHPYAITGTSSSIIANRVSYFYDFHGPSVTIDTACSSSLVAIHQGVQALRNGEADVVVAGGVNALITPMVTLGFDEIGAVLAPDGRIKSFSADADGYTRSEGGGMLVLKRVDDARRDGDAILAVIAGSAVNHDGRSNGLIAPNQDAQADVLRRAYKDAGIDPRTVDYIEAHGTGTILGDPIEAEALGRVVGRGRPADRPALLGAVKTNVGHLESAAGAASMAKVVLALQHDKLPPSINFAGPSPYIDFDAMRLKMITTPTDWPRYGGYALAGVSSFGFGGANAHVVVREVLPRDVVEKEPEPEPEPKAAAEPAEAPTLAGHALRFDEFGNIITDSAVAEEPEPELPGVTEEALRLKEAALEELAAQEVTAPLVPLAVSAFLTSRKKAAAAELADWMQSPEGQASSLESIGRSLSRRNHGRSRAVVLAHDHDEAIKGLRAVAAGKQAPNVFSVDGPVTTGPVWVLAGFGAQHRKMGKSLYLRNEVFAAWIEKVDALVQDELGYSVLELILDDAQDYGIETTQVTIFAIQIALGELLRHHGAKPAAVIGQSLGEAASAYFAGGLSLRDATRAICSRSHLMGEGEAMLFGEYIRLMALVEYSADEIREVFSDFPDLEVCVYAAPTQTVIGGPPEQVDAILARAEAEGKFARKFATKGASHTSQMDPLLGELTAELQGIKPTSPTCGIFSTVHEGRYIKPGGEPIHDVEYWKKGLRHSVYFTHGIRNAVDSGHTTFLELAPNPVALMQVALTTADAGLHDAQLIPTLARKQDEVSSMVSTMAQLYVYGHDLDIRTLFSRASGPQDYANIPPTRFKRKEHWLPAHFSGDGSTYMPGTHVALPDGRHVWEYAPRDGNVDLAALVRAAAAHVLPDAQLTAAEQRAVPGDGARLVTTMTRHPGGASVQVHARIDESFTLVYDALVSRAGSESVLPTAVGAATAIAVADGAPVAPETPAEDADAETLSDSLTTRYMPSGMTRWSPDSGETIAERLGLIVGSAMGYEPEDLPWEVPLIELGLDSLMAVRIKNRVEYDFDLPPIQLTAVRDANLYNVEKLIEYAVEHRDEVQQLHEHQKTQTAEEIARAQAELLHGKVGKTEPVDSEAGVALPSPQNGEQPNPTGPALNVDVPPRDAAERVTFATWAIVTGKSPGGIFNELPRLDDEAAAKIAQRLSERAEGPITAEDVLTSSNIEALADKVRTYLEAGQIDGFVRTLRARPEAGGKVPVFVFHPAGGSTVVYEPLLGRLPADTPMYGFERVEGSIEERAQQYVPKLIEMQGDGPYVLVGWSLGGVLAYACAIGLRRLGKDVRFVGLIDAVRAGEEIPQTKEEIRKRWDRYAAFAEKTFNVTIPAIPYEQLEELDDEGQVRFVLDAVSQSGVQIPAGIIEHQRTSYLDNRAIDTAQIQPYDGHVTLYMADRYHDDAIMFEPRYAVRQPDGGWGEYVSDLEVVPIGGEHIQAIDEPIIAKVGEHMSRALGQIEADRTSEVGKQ
UniProt Q8IDJ8, 1-583: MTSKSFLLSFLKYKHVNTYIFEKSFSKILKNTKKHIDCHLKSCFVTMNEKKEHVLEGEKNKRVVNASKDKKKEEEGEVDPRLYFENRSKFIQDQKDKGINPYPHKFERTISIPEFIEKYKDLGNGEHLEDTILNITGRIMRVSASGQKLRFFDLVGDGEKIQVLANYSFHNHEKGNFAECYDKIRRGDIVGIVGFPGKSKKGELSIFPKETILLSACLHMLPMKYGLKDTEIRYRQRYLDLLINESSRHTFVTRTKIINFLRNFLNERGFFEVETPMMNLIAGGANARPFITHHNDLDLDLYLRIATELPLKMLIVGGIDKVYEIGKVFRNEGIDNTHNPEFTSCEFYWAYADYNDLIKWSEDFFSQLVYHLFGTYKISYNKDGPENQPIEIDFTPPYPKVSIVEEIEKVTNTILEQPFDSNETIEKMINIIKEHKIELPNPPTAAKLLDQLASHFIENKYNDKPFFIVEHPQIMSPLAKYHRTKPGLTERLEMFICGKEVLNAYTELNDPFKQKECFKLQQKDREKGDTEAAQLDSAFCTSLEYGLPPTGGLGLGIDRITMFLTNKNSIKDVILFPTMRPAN

A: 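ClpP1P2, Mycobacterium tuberculosis (UniProt P9WPC5 and UniProt P9WPC3). Protease assay of ClpP1P2, read by the AMC dye that it sets free. Compounds at 50 µM. Higher reads as stronger inhibition, judged from the few compounds that gave an IC50. Most other retested compounds had strongly negative values. About 69,000 compounds were tested under these conditions; 0.015% (about 10) showed 50% or more at least once.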
B: 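Assay of Toxoplasma gondii numbers, read through their beta-galactosidase reporter with a colour substrate. Tested at 10 µM. The record gives no direction; the compounds picked for IC50 retests had high values, so higher reads as fewer parasites. About 67,000 compounds were tested under these conditions; 0.38% (about 260) showed 50% or more at least once.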
C: 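Histidine-tRNA ligase, Trypanosoma cruzi CL Brener (UniProt Q4DA54). Enzyme assay of histidyl-tRNA synthetase; the read-out is not stated. Compounds at 30 µM. Higher reads as stronger inhibition (inferred: compounds with an IC50 in retests scored well above the rest). About 69,000 compounds were tested under these conditions; 0.045% (about 31) showed 50% or more at least once.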
D: 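Polyketide synthase Pks13, Mycobacterium tuberculosis (UniProt I6X8D2). Enzyme assay of the thioesterase domain of polyketide synthase 13; the read-out is not stated. Tested at 30 µM. The record gives no direction; the compounds picked for IC50 retests had high values, so higher reads as stronger inhibition. Of about 67,000 compounds tested this way, about 300 (0.46%) reached 50% or more in at least one test.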
E: 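Enzyme assay of the cytosolic lysyl-tRNA synthetase in 384-well plates, read by luminescence. Target: Lysine-tRNA ligase, Plasmodium falciparum 3D7 (UniProt Q8IDJ8). Concentration: 30 µM. Higher reads as stronger inhibition, judged from the few compounds that gave an IC50. Size under these conditions: about 69,000 compounds, about 49 of them at 50% or above in at least one test.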

The filed quantity is “Percent Effect” (%). How 0% and 100% were set is not recorded. Most values in the screen are low, and negative values occur. Compounds were drawn at random from those tested, without regard to their results.

{"compound": "CCc1ccc2ncn(Cc3ncc[nH]3)c(=O)c2c1", "A": -7.581, "B": -5.28, "C": 5.473, "D": -9.601, "E": 0.6767}
{"compound": "CC(C)c1nnc2n1CCN(C(=O)c1cnc(C3CC3)s1)C2", "A": 1.293, "B": -0.0609, "C": 9.74, "D": -16.35, "E": 2.872}
{"compound": "[H][C@@]12OCCN(CCOC)[C@@]1([H])CC[C@H]2OCc1cccc(C)n1", "B": -2.463}
{"compound": "CN(Cc1ccco1)C1CCC12CCN(C(=O)N1CCCC1)CC2.O=C(O)C(F)(F)F", "stereo": "centres unmarked", "B": -5.306}
{"compound": "[H][C@@]12CCC(=O)N(CCCOC)[C@]1([H])CCN(c1ccc(C(N)=O)cn1)C2", "B": -24.96}
{"compound": "N#Cc1ccc(C(=O)N2CCOC[C@H](Oc3cnccn3)C2)cc1", "A": -8.524, "B": 14.55, "C": 1.493, "D": -22.25, "E": 1.783}
{"compound": "Cn1cnc(S(=O)(=O)NCCCN2CCOCC2)c1Cl", "A": -2.592, "B": 2.47, "C": -16.54, "D": 1.716, "E": 4.311}
{"compound": "CCOCCOc1ccc(S(=O)(=O)N2CCc3c(nc[nH]c3=O)C2)cc1", "A": -5.35, "B": -4.332, "C": 6, "D": 4.749, "E": 2.529}
{"compound": "CC(C)c1nn(C)c(Cl)c1CNCc1ccc2c(c1)OCCO2", "A": 3.301, "C": 3.03, "D": -10.04, "E": 5.075}
{"compound": "Cc1nn(C(C)C)c2cnn(CC(=O)N3CCSCC3)c12", "A": -7.007, "B": 7.056, "C": 1.327, "D": -0.8428, "E": 0.8027}
{"compound": "COCCN1CCCCC12CC(=O)N(c1cccc(C#N)c1)C2.O=C(O)C(F)(F)F", "stereo": "centres unmarked", "B": -3.265}
{"compound": "CC(=O)Nc1nc(C(=O)NCc2ccc(N3CCOC(C)C3)nc2)cs1", "stereo": "centres unmarked", "A": -11.29, "B": -23.72, "C": 1.69, "D": -20.2, "E": -0.5584}
{"compound": "O=C(O)C(F)(F)F.O=C1CC[C@]2(CC[C@@H](NCc3ccoc3)CC2)N1", "B": 9.33}
{"compound": "CC(C)NC(=O)CC1CC2(CCN(CC3CC3)CC2)Oc2ccccc21.O=C(O)C(F)(F)F", "stereo": "centres unmarked", "B": 8.173}
{"compound": "Cc1sc(N)nc1-c1ccc(Cl)cc1", "A": -11.22, "B": -7.502, "C": -0.5525, "D": -4.454, "E": 3.394}
{"compound": "Cc1ccccc1NC(=O)NCC(C)(O)c1cccs1", "stereo": "centres unmarked", "A": -10.56, "B": 6.08, "C": 7, "D": -13.85, "E": 1.18}
{"compound": "CC(C(=O)N1CCCCCC1)N1CCN(Cc2nccn2C)CC1", "stereo": "centres unmarked", "A": -27.66, "B": -12.05, "C": 0.578, "D": -17.32, "E": -1.776}

2 of the entries, repeated:

{"compound": "CC(C(=O)N1CCCCCC1)N1CCN(Cc2nccn2C)CC1", "stereo": "centres unmarked", "A": -27.66, "B": -12.05, "C": 0.578, "D": -17.32, "E": -1.776}
{"compound": "Cc1nn(C(C)C)c2cnn(CC(=O)N3CCSCC3)c12", "A": -7.007, "B": 7.056, "C": 1.327, "D": -0.8428, "E": 0.8027}

The values are deposited in ChEMBL (CHEMBL3988442, “University of Dundee, Small-Polar-MMV Screening Library” (2021)).